PubChem BioAssay AID720505, Drosophila RNAi Screening Center – 2013
The deposit covers about 20,000 reagents; below is an unselected part of those with a known target gene and a result. Of all reagents, about 2,100 (10%) were called active. 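Raw plate signals without normalisation; calls rest on control-based scores that were not deposited; replicate 2 separates called from uncalled poorly.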 Entries without a mark were called inactive. Reagent sequences are not shown. The record does not give: the amount of reagent, the time to read-out.

Test: 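Knock-downs that reduce calcium influx once internal stores are emptied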 (primary screen)
Cell system: Drosophila S2R+ cells
Reagents: long dsRNA against Drosophila genes
Treatment: thapsigargin (2 µM) in calcium-free buffer to empty internal stores, then 2 mM calcium added back
Measured: 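Stores emptied by 2 µM thapsigargin without calcium, then 2 mM calcium re-added; fluo-4 fluorescence followed by FLIPR in 384-well plates, per-well averaged endpoint, raw; two screen passes, some wells retested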
Scale: calcium signal and retest calcium signal: higher = more calcium entry after store depletion
Call rule: 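About 1500 genes called as lowering calcium entry, by varying amounts, judged against per-plate control wells with STIM1 as positive and Rho1 as negative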
Calls: active = called as lowering calcium entry; inactive = not called

| calcium signal, replicate 1 | calcium signal, replicate 2 | retest calcium signal, replicate 1 | retest calcium signal, replicate 2 | predicted target | dsRNA |
| --- | --- | --- | --- | --- | --- |
| 73.8 | 174 | – | – | CG5516 | DRSC15826 |
| 144 | 92 | – | – | CG5516 | DRSC21753 |
| 148 | 88.2 | – | – | CG34106 | DRSC01578 |
| 89.3 | 129 | – | – | CG12985 | DRSC19505 |
| 103 | 179 | – | – | sinah | DRSC09910 |
| 104 | 242 | – | – | sinah | DRSC22181 |
| 98.4 | 96 | – | – | SdhC | DRSC16088 |
| 188 | 185 | 86.8 | 133 | sel | DRSC06232 |
| 94.7 | 94.7 | – | – | CG17672 | DRSC10278 |
| 193 | 143 | – | – | sdt | DRSC17860 |
| 274 | 157 | – | – | sdt | DRSC17861 |
| 205 | 140 | – | – | sdt | DRSC18022 |
| 325 | 169 | – | – | sdt | DRSC18025 |
| 197 (active) | 130 | – | – | sdt | DRSC18026 |
| 285 | 145 | – | – | sdt | DRSC18027 |
| 275 | 106 | – | – | sdt | DRSC18108 |
| 113 | 193 | – | – | CG11367 | DRSC22434 |
| 79.4 | 96.4 | – | – | Aprt | DRSC08139 |
| 157 | 144 | – | – | Gle1 | DRSC06485 |
| 92.9 | 221 | – | – | PDCD-5 | DRSC09955 |
| 113 | 183 | – | – | Capa | DRSC15058 |
| 166 | 93.8 | – | – | Acox57D-d | DRSC04561 |
| 126 | 195 | – | – | Ir75a | DRSC10188 |
| 144 | 101 | – | – | Rbp1-like | DRSC19828 |
| 107 | 272 | – | – | Rbp1-like | DRSC21938 |
| 92.3 | 269 | – | – | Rbp1-like | DRSC22075 |
| 84.4 | 115 | – | – | CG8565 | DRSC20112 |
| 78 (active) | 129 | – | – | Kpc1 | DRSC16107 |
| 93.6 | 112 | – | – | CG33474 | DRSC05218 |
| 104 | 113 | – | – | NetA | DRSC20261 |
| 164 | 77 | – | – | CG10005 | DRSC14172 |
| 147 | 105 | – | – | lncRNA:CR41443 | DRSC07733 |
| 123 | 227 | – | – | Nurf-38 | DRSC04629 |
| 157 | 113 | – | – | NLaz | DRSC21521 |
| 62.5 (active) | 115 | – | – | Pgls | DRSC19769 |
| 245 | 136 | – | – | CG34347 | DRSC14305 |
| 223 | 114 | – | – | CG34347 | DRSC15104 |
| 30.8 (active) | 40.1 | – | – | CG34347 | DRSC15105 |
| 78.5 | 105 | – | – | CG34347 | DRSC23044 |
| 142 | 115 | – | – | CG14717 | DRSC14940 |
| 270 | 146 | – | – | fz4 | DRSC18780 |
| 122 | 205 | – | – | CG13699 | DRSC10048 |
| 70 (active) | 100 | – | – | CG12645 | DRSC17851 |
| 100 | 166 | – | – | lace | DRSC03564 |
| 128 | 237 | – | – | fra | DRSC07621 |

Next part; the last 5 above are carried over.
| calcium signal, replicate 1 | calcium signal, replicate 2 | retest calcium signal, replicate 1 | retest calcium signal, replicate 2 | predicted target | dsRNA |
| --- | --- | --- | --- | --- | --- |
| 270 | 146 | – | – | fz4 | DRSC18780 |
| 122 | 205 | – | – | CG13699 | DRSC10048 |
| 70 (active) | 100 | – | – | CG12645 | DRSC17851 |
| 100 | 166 | – | – | lace | DRSC03564 |
| 128 | 237 | – | – | fra | DRSC07621 |
| 114 | 68.6 | – | – | XRCC1 | DRSC18729 |
| 88 | 90.1 | – | – | pcx | DRSC18186 |
| 97.7 | 109 | – | – | pcx | DRSC18187 |
| 73.1 | 76.4 | – | – | pcx | DRSC18188 |
| 61.6 (active) | 97.9 | – | – | pcx | DRSC18189 |
| 54.1 (active) | 86.5 | – | – | pcx | DRSC18190 |
| 111 | 115 | – | – | pcx | DRSC18816 |
| 82.7 | 93 | – | – | Rsod | DRSC15424 |
| 128 | 117 | – | – | imd | DRSC05928 |
| 113 | 75.5 | – | – | mei-P26 | DRSC17735 |
| 116 | 158 | – | – | mei-P26 | DRSC23049 |
| 82 | 162 | – | – | CG9521 | DRSC20196 |
| 115 | 120 | – | – | ttm3 | DRSC03736 |
| 164 | 160 | – | – | CG7766 | DRSC18424 |
| 91.5 | 143 | – | – | Smyd3 | DRSC17744 |
| 95.2 | 103 | – | – | Ugt35D1 | DRSC15107 |
| 79.6 | 188 | – | – | lncRNA:CR33218 | DRSC22944 |
| 96.8 | 74.9 | – | – | CG6426 | DRSC06985 |
| 132 | 86.5 | – | – | CG2082 | DRSC12125 |
| 109 | 95.3 | – | – | ctrip | DRSC12242 |
| 108 | 126 | – | – | ctrip | DRSC12287 |
| 113 | 182 | – | – | ctrip | DRSC22449 |
| 86.6 | 105 | – | – | Vha16-2 | DRSC10873 |
| 200 | 142 | – | – | l(2)09851 | DRSC04858 |
| 145 | 139 | – | – | CG42808 | DRSC06370 |
| 129 | 97.3 | – | – | CG14230 | DRSC19586 |
| 71.7 | 154 | – | – | TpnC41C | DRSC04916 |
| 80.5 | 178 | – | – | l(3)72Dp | DRSC10477 |
| 80.4 | 117 | – | – | ago | DRSC08463 |
| 185 | 204 | – | – | CG3308 | DRSC15474 |
| 120 | 124 | – | – | CG18404 | DRSC15323 |
| 91 | 106 | – | – | CG6153 | DRSC02935 |
| 150 | 79.8 | – | – | aurA | DRSC16905 |
| 128 | 162 | – | – | Gpo2 | DRSC06822 |
| 67.1 | 91.7 | – | – | Fem-1 | DRSC07322 |
| 78 | 133 | – | – | Hrb98DE | DRSC16709 |
| 103 | 103 | – | – | hale | DRSC10882 |
| 241 | 128 | – | – | bi | DRSC18742 |
